Assay results from PubChem BioAssay AID1508600 (Functional Genomics Laboratory (NCATS/FGL), 2020).
Screen size: about 53,000 sequences; about 3,700 (7%) were called active.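 The calls were made as follows: active = gene knockdowns whose robust z-score for IL-1 alpha signal is at least 2 or at most -2, so actives lie on both sides; inactive = the rest.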 The list shows a part of the results.

Assay: Components of the Cytosolic LPS Sensing Pathway: Gene Identification via Genome-wide siRNA Screen;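 also: robust z of the log signal after scaling to non-targeting control siRNA wells of the plate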
Conditions: RAW264.7 macrophages, IL-1a HTRF, actives lie on both sides, screened at 100 nM (by protocol), cells primed 5 h with Pam3CSK4 first
How it was run: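 RAW264.7; siRNA 100 nM final, RNAiMAX, 48h 37 degrees C; Pam3CSK4 5 h; LipidA + TransIT-TKO 24 h; IL-1a HTRF; CellTiter-Glo viability; robust z vs negative-control median.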

Sequence	z-score
GGAAAUAAUGUUACUGACATT against Zfp445	inactive: -0.178
CGAAACUUACCAGGAGUCGTT against Ttyh2	active: -2.31
GGUUUGUUGUUGUUUUUGGTT against Vezt	inactive: 0.44
GGGAUUCCUUCAGCUUACCTT against Gng12	inactive: -0.744
GCUUCAUCGAACAAGUCGCTT against Pcbd1	inactive: 0.715
GGGAGAAUCGAUCCUUCACTT against Dmac2	inactive: -0.12
GGCAGAAAGCAGAGCUUCUTT against Igfbp3	inactive: -1.36
CGUACUGGGCCUAUGUUGATT against Nrarp	inactive: 0.975
CCUUCUGGCCCAGACGAUUTT against Pxmp2	inactive: -1.39
GCUAUUAUUGCAAUGUCAGTT against Trim38	inactive: -0.113
GGACAGUGAGGUGAACUUCTT against Enc1	inactive: -0.268
GGAAAAAAGUCCUUGAGUCTT against Plscr3	inactive: -1.51
GCCACGGAAAACAGCGAGATT against Gpr65	inactive: -0.778
GGCCAUUUGCAUGAUUAUUTT against Tas2r108	inactive: -0.598
UGUCGACUGUCAAGAACUATT against Lyzl6	inactive: -1.33
GGGUUUUCGGGAGAUCUGUTT against Ltbp4	inactive: -0.44
GGCCUGAAGGGCAUUUACATT against Slc25a11	inactive: 1.48
GGCGAAGUAUCUGAUGAGGTT against Plch2	inactive: -0.405
GCUCAGAUGACAAUUUGCCTT against Gbx2	inactive: -0.64
GCCAAUACGGGUGAACAAGTT against Sf3b4	inactive: 0.335
GGGCAUUUCUUCAGCUAAUTT against Tfec	inactive: -1.04
GGUAUCCACUGUGCCAACCTT against Ush2a	inactive: -0.343

Sequence	z-score
CGAGUUUUAUGAAUAAGCUTT against Otud6b	inactive: -0.855
GGUCCUGGACUUCAUGCUATT against Galnt6	active: 2.75
GGAGACCUCAGCUGAUAUUTT against Tmem109	inactive: 0.51
CGCAGAAGCUAAUAAACAGTT against Psmb6	inactive: -0.391
GGAUUAGAGGUUAUGGUAATT against Skint11	inactive: -0.686
GGUGUGGAUGAGCAAGUACTT against Eif3k	inactive: 1.23
CCUUUACUGUCACAAGCCGTT against Rgl2	inactive: 0.979
GGCACUUGCUAUCAGCAAGTT against Cdc6	inactive: -0.999
GGCAUUCUUUCUUCAAUACTT against Ibsp	inactive: 0.261
GGAGAAACAAAAAAGGUGUTT against Srd5a3	inactive: -0.0317
GGAUGGCUUUAAUAGUACUTT against Zfp106	inactive: -0.222
GCAAGCACUGAACUUUGUCTT against Fam122a	inactive: -1.76
GCCAGUUCUAGGGUAAUGGTT against Cnr2	inactive: -1.22
GCGAGACCGUUCAAUAAAGTT against Sergef	inactive: 0.73
GCUAGAAGUCAACAAAUACTT against Timp3	inactive: 0.801
GGACUACUCCUGGUAGUGATT against Slc46a2	inactive: -0.326
GGAGAAGGAGGUGAUAAUGTT against Sart1	inactive: 1.19
CCUCUACAUCAGAGUAUGATT against Defb21	active: 2.22
UUUCGAUCCUUUGAUUGAGTT against Olfr482	inactive: 0.0231
CGUCAAUGCUCACUUAAUUTT against Zfp612	inactive: 0.523
GGAUCUUCGGACCUAUCUGTT against Bin1	inactive: -0.319
CCAUCAUUGGUGAAUCCCUTT against Gnai1	inactive: -1.64

Sequence	z-score
GCUCAGUUCUCUGUCUUGUTT against Olfr107	inactive: 1.21
GGGCUUUGAUGUCAUGAAGTT against Drg2	inactive: -0.668
GGAAGAAGGAACAUGAUCUTT against Mrpl52	inactive: -0.928
CCAUGUCAGUUACAAUGCGTT against Gja6	inactive: 1.54
GGCUCUGAUAUUGAUACUATT against Cse1l	inactive: -0.181
GCCCGUGGUCUAAAUCUAUTT against Igtp	inactive: -0.17
GGAUGUGACUCUUGACCUGTT against Depdc5	inactive: 0.231
CCUCUUAAUGAAGGAAAGCTT against Npy	inactive: 0.376
GCUUGGAUAUACAGAUUAATT against Skint10	inactive: 0.851
GGAGAAAGACAUCAGAAAGTT against Rdh16f2	inactive: 0.942
GCAAAAGACCAUCUGAGUGTT against Adig	inactive: 0.375
GGCAUCCACACAGAACAAGTT against Zfp467	inactive: -0.287
GGCCUUCACCAAAAGCAUCTT against Ncf2	inactive: -0.661
GGUUCAGCUGACGUAAAAATT against BC048562	active: -2.1
GGCCCAGUUUCUGAGGAUCTT against B4galt2	inactive: -0.921
AUGCAAGAGGAACGUAUCATT against Olfr1181	inactive: -0.572
GCAUUCGGCUGAGAAGAUGTT against Foxb2	inactive: -1.74
GGUCACCUUGUGAAGGCAGTT against A430005L14Rik	inactive: 0.171
GCAACAUUAUUUCAUCGACTT against Kctd15	inactive: 0.0368
GGAGACAUGGUGAAGAUUUTT against Vav3	inactive: -0.451
GGACAGGAGGAUUACAACCTT against Rhoj	inactive: -0.954
GGUUUGAACUUCAGCAACUTT against Adam15	active: -2.17

Pulled one by one from the list above (three):
Sequence	z-score
GGAGACAUGGUGAAGAUUUTT against Vav3	inactive: -0.451
GGAUGUGACUCUUGACCUGTT against Depdc5	inactive: 0.231
GGCCUUCACCAAAAGCAUCTT against Ncf2	inactive: -0.661

Next part

Sequence	z-score
GGACCCUUUCUUUGAUAUGTT against Rpe	inactive: 1.01
GUAACCUGAUUUCCAUUCUTT against Olfr178	inactive: 0.913
GGACACUAAGGUUCCCAACTT against Polr2j	inactive: -0.977
GGUCUCCUUCUGCUUGAAGTT against Prx	inactive: 0.422
CGUCCAGUAUACGCUGGUUTT against Cdc45	active: 5.41
GGGAUGUGUACCGUUACAUTT against 1700010I14Rik	inactive: 0.155
GGAAAGUGGAUGUCACCAGTT against Sh3gl2	inactive: -1.67
GCUGAUAAACAUCAGCUACTT against Zdhhc23	active: 4.01
CCCUGAAACCUGAUCGGAATT against Nmral1	inactive: -0.0303
CCACUCCGAAACCAUCAGCTT against Asic2	inactive: 1.09
GGUCUUUGAUCUUCUACCGTT against Thbs4	inactive: 0.156
CCAUGAAACGGGCCAUUUCTT against Cldn3	inactive: 0.238
CCAUGUGGGUAAGUACAGCTT against 4932411N23Rik	inactive: 1.75
GGCUUCCUGUUGGCAGUCATT against Olfr1413	inactive: -1.24
GGACCUCAGCGAAGACAAUTT against Cd300e	inactive: 0.114
GGUAAAAAGCCUUAUCAGUTT against Zfp146	inactive: -0.434
GGACAUCCAGACUCUGAGATT against Dmac2	inactive: -1.56
GGUGAUUGUCUUGAUAUCCTT against Olfr1213	inactive: -0.672
GGAACAAAGAAGUAAUGUATT against Tbk1	inactive: 1.21
GCAUUCCAACGGAUUUAAUTT against Dag1	active: 2.21
GGAGAUGGACUCACUGAUGTT against Zscan20	inactive: -1.32
AAACCAUACUUGAAAGAAATT against Olfr943	inactive: -0.36

Shown in markdown: part of the list above

| Sequence | z-score |
| --- | --- |
| CGUCCAGUAUACGCUGGUUTT against Cdc45 | active: 5.41 |
| GGAACAAAGAAGUAAUGUATT against Tbk1 | inactive: 1.21 |

Remaining list, next part:

Sequence	z-score
GGAACUGGAAAGGAAUCGCTT against Dpp6	inactive: 1.14
GGCCCUGCCUACUAUCUAUTT against B3gat3	inactive: -1.4
CCUGUACUCUAUAUUCUGUTT against Pld2	inactive: 0.98
GGGCAAGAGAGUAGAACUGTT against Ambra1	inactive: 0.383
CCCAACAUUUCCCUAUGUCTT against Reg3d	inactive: 0.832
GGCAAUUUUGGACAAACAGTT against Amy1	inactive: -1.42
GCUCUCAGUGACCUUAGAATT against Dnaja1	inactive: -0.302
GGUUGUGCACAGCAGUGUUTT against Crct1	inactive: -0.716
CCGCUAACUUGAUUGACGATT against Tcte1	inactive: -0.923
GCCCAUUGAAGAAAAACCCTT against Arid4b	inactive: -0.698
GGGUCAGAAUAUUUGCUUCTT against Olfr325	inactive: 0.89
GCCAGUUAACUUUAGGGAGTT against Ywhaz	inactive: 0.274
GGCUGGAAGACAAAACUCCTT against Prickle3	inactive: -0.782
CGAUGCUGAUGUAUCAAAGTT against Phkb	inactive: 1.48
CGAAUAUCAAAGGAUACUUTT against Tmem167	inactive: 0.627
GCUCAUUUAUUCAGGAAGCTT against Zbtb9	inactive: 0.406
GGAAGAGCUGCUGAAUUCATT against Mthfd2	inactive: 0.052
GGUGAACUCAGACUGAAUGTT against Mtres1	inactive: -0.183
GGAAAAUAAGCAUAGUGAUTT against Spesp1	inactive: -0.35

Already shown: entries from further up.
Sequence	z-score
GGGUCAGAAUAUUUGCUUCTT against Olfr325	inactive: 0.89
GCCAGUUAACUUUAGGGAGTT against Ywhaz	inactive: 0.274
